From the supplement of paper PMC10849652
The list shows a part of the results.

Protein sequences, listed by entry. Tags and fused reporters are not part of them. Lines headed by an entry give the natural chain unless they say otherwise; changes in a name come on top.
UniProt Q6NVY1: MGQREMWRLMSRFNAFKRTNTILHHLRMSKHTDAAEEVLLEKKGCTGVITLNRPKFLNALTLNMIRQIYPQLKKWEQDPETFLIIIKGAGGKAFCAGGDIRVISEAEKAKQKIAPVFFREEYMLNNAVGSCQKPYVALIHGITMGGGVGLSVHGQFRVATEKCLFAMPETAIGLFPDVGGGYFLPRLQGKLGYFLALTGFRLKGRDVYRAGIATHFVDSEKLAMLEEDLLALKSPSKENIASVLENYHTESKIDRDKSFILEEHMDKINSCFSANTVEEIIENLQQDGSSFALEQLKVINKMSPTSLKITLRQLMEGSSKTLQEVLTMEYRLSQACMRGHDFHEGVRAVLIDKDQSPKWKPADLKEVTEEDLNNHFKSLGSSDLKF
UniProt Q9UPZ3: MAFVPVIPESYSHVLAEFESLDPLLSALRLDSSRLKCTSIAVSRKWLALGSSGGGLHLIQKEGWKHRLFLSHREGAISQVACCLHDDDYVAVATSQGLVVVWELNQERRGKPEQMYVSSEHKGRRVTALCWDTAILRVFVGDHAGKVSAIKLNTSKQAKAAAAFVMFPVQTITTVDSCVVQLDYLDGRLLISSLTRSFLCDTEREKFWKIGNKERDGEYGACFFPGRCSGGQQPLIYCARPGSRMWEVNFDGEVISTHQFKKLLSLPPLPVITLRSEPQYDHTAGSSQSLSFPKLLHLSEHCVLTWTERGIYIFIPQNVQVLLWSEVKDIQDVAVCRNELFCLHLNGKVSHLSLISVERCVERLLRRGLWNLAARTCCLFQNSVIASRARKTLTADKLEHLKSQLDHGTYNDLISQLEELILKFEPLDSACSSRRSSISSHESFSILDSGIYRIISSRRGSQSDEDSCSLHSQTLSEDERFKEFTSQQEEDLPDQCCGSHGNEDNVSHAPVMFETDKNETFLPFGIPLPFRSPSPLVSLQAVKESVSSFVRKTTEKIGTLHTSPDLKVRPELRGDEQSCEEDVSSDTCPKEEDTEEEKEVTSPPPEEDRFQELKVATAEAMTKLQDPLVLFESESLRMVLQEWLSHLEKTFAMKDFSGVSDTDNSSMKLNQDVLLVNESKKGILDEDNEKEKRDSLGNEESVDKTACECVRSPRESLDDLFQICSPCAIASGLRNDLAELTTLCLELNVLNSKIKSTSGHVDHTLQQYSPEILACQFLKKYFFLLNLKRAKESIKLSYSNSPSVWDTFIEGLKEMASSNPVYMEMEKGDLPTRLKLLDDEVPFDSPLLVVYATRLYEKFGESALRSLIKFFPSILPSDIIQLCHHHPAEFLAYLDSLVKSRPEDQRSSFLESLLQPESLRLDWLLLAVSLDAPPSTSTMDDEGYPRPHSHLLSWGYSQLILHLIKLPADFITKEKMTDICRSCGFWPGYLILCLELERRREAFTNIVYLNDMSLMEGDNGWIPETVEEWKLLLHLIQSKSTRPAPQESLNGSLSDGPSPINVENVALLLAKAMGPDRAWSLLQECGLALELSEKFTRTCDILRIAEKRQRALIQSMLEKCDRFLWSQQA
UniProt Q92902: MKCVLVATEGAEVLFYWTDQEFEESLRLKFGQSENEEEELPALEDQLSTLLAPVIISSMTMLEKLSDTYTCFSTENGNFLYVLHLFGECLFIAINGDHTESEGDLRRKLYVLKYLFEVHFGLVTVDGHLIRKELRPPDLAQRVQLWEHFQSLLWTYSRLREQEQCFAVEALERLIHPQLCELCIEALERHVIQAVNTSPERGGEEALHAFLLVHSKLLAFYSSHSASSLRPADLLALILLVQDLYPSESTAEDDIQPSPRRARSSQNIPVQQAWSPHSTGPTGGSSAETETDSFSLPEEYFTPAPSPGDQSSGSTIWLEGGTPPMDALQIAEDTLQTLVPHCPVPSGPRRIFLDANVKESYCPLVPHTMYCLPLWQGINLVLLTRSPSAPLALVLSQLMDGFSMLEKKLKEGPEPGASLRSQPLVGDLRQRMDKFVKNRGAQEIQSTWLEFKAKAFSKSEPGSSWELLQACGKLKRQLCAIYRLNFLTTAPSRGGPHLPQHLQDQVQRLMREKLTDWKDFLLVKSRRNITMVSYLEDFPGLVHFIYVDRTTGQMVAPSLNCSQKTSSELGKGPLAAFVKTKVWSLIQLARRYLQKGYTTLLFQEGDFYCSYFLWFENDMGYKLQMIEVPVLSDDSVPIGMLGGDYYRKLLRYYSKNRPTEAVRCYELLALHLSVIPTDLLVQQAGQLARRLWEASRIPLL
UniProt P50135: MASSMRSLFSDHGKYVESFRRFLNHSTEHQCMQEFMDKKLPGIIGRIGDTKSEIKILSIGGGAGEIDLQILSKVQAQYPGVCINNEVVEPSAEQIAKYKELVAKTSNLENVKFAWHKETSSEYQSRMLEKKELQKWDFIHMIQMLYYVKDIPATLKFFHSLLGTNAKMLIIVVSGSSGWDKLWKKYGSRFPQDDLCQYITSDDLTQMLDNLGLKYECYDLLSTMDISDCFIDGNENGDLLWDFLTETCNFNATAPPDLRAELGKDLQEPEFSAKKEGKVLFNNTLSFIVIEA
UniProt P51659: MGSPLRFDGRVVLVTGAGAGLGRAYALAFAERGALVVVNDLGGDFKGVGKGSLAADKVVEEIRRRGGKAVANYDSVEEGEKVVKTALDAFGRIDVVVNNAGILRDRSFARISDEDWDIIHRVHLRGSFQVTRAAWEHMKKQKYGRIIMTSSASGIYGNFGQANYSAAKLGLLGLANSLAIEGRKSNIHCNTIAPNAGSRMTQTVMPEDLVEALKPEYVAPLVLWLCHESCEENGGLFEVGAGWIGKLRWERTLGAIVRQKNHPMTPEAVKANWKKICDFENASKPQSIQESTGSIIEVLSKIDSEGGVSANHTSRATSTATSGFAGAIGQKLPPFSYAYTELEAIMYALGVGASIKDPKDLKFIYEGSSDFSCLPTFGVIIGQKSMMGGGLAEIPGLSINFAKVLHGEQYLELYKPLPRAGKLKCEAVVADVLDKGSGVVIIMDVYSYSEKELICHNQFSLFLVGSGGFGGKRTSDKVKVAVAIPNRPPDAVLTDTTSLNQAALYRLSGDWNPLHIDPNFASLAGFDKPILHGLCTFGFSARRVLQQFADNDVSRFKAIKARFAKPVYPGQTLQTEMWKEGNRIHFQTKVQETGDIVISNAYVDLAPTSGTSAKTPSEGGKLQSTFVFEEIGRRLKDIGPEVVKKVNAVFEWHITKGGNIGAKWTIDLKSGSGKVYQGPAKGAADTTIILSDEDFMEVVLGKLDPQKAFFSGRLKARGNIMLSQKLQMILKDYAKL
UniProt P09429: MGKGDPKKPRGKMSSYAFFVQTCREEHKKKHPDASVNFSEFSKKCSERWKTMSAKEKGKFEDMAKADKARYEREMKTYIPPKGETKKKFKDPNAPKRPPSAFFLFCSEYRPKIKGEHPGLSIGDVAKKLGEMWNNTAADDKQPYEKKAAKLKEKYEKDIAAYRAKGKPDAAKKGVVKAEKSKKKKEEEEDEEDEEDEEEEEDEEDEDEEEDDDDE
UniProt P52272: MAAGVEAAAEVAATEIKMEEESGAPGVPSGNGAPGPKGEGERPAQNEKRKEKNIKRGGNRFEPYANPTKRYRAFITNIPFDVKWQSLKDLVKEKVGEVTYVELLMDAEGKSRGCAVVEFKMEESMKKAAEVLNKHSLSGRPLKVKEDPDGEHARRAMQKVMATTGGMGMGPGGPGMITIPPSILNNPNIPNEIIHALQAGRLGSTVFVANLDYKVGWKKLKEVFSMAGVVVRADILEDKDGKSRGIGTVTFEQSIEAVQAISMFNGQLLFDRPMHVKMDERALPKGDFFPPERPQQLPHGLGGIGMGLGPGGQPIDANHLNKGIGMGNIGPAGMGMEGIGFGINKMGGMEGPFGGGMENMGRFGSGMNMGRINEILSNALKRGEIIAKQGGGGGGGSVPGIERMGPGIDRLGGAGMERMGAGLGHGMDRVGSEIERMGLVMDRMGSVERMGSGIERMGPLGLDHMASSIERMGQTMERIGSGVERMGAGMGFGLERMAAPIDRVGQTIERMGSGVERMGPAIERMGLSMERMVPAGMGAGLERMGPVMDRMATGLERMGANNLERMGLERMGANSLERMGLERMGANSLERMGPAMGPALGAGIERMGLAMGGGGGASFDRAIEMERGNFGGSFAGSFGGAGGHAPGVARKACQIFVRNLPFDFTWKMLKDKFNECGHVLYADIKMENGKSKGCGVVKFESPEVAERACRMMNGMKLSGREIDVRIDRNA
UniProt Q5SSJ5: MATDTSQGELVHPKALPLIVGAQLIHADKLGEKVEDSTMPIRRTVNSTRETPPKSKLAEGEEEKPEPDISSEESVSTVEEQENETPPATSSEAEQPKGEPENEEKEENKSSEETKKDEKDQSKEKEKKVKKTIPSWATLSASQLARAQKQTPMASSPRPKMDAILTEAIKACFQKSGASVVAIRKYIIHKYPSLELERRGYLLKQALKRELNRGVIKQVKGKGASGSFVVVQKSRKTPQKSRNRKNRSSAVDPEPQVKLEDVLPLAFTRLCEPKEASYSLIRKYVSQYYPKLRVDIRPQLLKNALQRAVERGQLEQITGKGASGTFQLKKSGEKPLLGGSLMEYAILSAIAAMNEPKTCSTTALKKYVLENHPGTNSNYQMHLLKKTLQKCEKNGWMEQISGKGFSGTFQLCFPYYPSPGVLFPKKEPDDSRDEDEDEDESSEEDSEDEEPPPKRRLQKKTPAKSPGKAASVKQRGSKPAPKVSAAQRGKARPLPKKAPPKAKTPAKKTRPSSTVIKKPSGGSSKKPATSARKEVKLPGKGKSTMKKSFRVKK
UniProt P54652, whole entry, looked up: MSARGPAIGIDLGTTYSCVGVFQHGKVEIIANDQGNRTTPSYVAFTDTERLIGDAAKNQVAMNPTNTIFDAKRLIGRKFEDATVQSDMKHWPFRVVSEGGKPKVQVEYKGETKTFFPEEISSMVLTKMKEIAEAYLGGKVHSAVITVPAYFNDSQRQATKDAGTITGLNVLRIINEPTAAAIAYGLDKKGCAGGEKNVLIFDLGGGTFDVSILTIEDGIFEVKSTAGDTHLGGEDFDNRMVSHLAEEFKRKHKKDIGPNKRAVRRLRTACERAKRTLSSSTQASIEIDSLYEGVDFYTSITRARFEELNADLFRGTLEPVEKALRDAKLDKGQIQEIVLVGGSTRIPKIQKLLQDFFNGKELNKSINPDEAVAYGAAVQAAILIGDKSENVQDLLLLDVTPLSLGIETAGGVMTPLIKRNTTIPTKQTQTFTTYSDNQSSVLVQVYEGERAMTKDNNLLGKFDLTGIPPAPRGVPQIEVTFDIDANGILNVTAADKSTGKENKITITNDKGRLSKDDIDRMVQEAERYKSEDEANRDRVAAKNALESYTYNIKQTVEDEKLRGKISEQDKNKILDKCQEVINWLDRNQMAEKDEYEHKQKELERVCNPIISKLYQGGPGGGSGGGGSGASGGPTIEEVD
UniProt Q8NCD3, whole entry, looked up: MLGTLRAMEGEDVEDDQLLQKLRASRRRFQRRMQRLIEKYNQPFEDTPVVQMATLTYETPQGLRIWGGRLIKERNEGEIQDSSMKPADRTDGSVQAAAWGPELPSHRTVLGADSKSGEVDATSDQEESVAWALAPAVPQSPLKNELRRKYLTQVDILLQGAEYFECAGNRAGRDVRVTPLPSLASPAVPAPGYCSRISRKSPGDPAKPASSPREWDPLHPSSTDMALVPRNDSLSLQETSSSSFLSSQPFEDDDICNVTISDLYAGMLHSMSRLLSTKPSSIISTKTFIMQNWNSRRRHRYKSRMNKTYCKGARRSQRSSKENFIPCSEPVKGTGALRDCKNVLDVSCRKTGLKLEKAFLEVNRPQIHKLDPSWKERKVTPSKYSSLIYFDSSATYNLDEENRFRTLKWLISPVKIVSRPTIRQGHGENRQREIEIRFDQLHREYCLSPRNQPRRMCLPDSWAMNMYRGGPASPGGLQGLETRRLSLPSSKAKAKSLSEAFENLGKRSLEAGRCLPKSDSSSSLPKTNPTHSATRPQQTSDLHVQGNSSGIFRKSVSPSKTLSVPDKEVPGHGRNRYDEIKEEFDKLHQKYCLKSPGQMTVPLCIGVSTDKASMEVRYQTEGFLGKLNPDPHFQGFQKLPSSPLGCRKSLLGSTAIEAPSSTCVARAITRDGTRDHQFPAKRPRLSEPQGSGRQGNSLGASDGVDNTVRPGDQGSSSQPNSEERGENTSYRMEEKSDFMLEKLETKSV

Legend:
Experiment in all cases: log2 fold change, soluble protein after heating vs DMSO (PISA); higher = thermal stabilisation; K562 lysate, 10 uM; active = over 0.2 and 3.5 SD of the protein, either way, in both replicates (recomputed)
lapatinib = compound: CS(=O)(=O)CCNCc1ccc(-c2ccc3ncnc(Nc4ccc(OCc5cccc(F)c5)c(Cl)c4)c3c2)o1 [lapatinib]
Summary of the method: (§1)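 Log-two fold change in thermal stability relative to solvent controls is reported from duplicates. For each sample, crude K562 extract from dounce-homogenised pellets in PBS pH 7.4 with 1 mM MgCl2, at 1 mg/mL protein, was treated with 10 μM compound for 30 min. Aliquots heated for 3 min across 48°C-58°C were pooled, brought to 0.5% NP-40 at 4°C and cleared at 21,000xg for 90 min. The supernatant was quantified by TMTpro 16plex LC-MS/MS with channel sums equalised.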

pictilisib = compound: CS(=O)(=O)N1CCN(Cc2cc3nc(-c4cccc5[nH]ncc45)nc(N4CCOCC4)c3s2)CC1 [pictilisib]
Summary of the method: as §1

crizotinib = compound: C[C@@H](Oc1cc(-c2cnn(C3CCNCC3)c2)cnc1N)c1c(Cl)ccc(F)c1Cl [crizotinib]
Summary of the method: as §1

[1] = compound: C[C@H](C1=CC=C(C=C1)C(=O)NC2=C3C=CNC3=NC=C2)N
Summary of the method: as §1

duvelisib = compound: C[C@H](Nc1ncnc2nc[nH]c12)c1cc2cccc(Cl)c2c(=O)n1-c1ccccc1 [duvelisib]
Summary of the method: as §1

gandotinib = compound: Cc1cc(Nc2cc(CN3CCOCC3)c3nc(C)c(Cc4ccc(Cl)cc4F)n3n2)n[nH]1 [gandotinib]
Summary of the method: as §1

tozasertib = compound: Cc1cc(Nc2cc(N3CCN(C)CC3)nc(Sc3ccc(NC(=O)C4CC4)cc3)n2)n[nH]1 [tozasertib]
Summary of the method: as §1

doramapimod = compound: Cc1ccc(-n2nc(C(C)(C)C)cc2NC(=O)Nc2ccc(OCCN3CCOCC3)c3ccccc23)cc1 [doramapimod]
Summary of the method: as §1

bafetinib = compound: Cc1ccc(NC(=O)c2ccc(CN3CC[C@H](N(C)C)C3)c(C(F)(F)F)c2)cc1Nc1nccc(-c2cncnc2)n1 [bafetinib]
Summary of the method: as §1

[2] = compound: Cc1cccc(CC(=O)N2CCc3c2ccc(-c2cn(C)c4ncnc(N)c24)c3F)n1
Summary of the method: as §1

nilotinib = compound: Cc1cn(-c2cc(NC(=O)c3ccc(C)c(Nc4nccc(-c5cccnc5)n4)c3)cc(C(F)(F)F)c2)cn1 [nilotinib]
Summary of the method: as §1

[3] = compound: Cc1nc(Nc2n[nH]c3c2CN(C(=O)N[C@H](CN(C)C)c2ccccc2)C3(C)C)c2sccc2n1
Summary of the method: as §1

dasatinib = compound: Cc1nc(Nc2ncc(C(=O)Nc3c(C)cccc3Cl)s2)cc(N2CCN(CCO)CC2)n1 [dasatinib]
Summary of the method: as §1

[4] = compound: Cc1ncc(-c2ccnc(Nc3ccc(S(C)(=O)=O)cc3)n2)n1C(C)C
Summary of the method: as §1

[5] = compound: Cn1cc(-c2ccc3c(c2)CCN3C(=O)Cc2cccc(C(F)(F)F)c2)c2c(N)ncnc21
Summary of the method: as §1

quisinostat = compound: Cn1cc(CNCC2CCN(c3ncc(C(=O)NO)cn3)CC2)c2ccccc21 [quisinostat]
Summary of the method: as §1

tipifarnib = compound: Cn1cncc1[C@@](N)(c1ccc(Cl)cc1)c1ccc2c(c1)c(-c1cccc(Cl)c1)cc(=O)n2C [tipifarnib]
Summary of the method: as §1

[6] = compound: NC(=O)Nc1cc(-c2cccc(F)c2)sc1C(=O)N[C@H]1CCCNC1
Summary of the method: as §1

[7] = compound: NC(=O)c1cnc(N[C@@H]2CCCC[C@@H]2N)nc1Nc1cccc(-n2nccn2)c1
Summary of the method: as §1

[8] = compound: NC1(c2ccc(-c3nc4ccn5c(=O)[nH]nc5c4cc3-c3ccccc3)cc2)CCC1
Summary of the method: as §1

| Target | log2 fold change (lapatinib) | log2 fold change (pictilisib) | log2 fold change (crizotinib) | log2 fold change [1] | log2 fold change (duvelisib) | log2 fold change (gandotinib) | log2 fold change (tozasertib) | log2 fold change (doramapimod) | log2 fold change (bafetinib) | log2 fold change [2] | log2 fold change (nilotinib) | log2 fold change [3] | log2 fold change (dasatinib) | log2 fold change [4] | log2 fold change [5] | log2 fold change (quisinostat) | log2 fold change (tipifarnib) | log2 fold change [6] | log2 fold change [7] | log2 fold change [8] |
| --- | --- | --- | --- | --- | --- | --- | --- | --- | --- | --- | --- | --- | --- | --- | --- | --- | --- | --- | --- | --- |
| HIBCH (UniProt Q6NVY1) | inactive: -0.011 | inactive: -0.024 | inactive: -0.02 | inactive: 0.062 | inactive: -0.007 | inactive: -0.063 | inactive: 0.009 | inactive: -0.007 | inactive: -0.015 | inactive: -0.084 | inactive: -0.021 | inactive: 0.016 | inactive: 0.021 | inactive: 0.025 | inactive: 0.002 | inactive: 0.008 | inactive: 0.043 | inactive: 0.007 | inactive: -0.005 | inactive: 0.006 |
| HPS5 (UniProt Q9UPZ3) | inactive: -0.183 | inactive: -0.05 | inactive: -0.065 | inactive: -0.377 | inactive: 0.005 | inactive: 0.295 |  | inactive: 0.097 | inactive: -0.025 | inactive: 0.473 | inactive: -0.156 | inactive: 0.262 | inactive: -0.032 | inactive: -0.214 | inactive: -0.076 | inactive: -0.035 | inactive: 0.054 | inactive: 0.046 | inactive: -0.03 | inactive: -0.043 |
| HNRNPK isoform 2 (UniProt P61978) | inactive: 0.004 | inactive: 0.009 | inactive: -0.015 | inactive: -0.02 | inactive: -0.017 | inactive: 0.019 | inactive: -0.02 | inactive: 0.046 | inactive: 0 | inactive: 0.015 | inactive: -0.02 | inactive: -0.014 | inactive: -0.011 | inactive: 0.001 | inactive: -0.009 | inactive: -0.082 | inactive: 0.018 | inactive: 0 | inactive: -0.011 | inactive: -0.03 |
| HPS1 (UniProt Q92902) | inactive: -0.071 | inactive: 0.098 | inactive: -0.027 | inactive: -0.081 | inactive: 0.043 | inactive: 0.003 | inactive: 0.042 | inactive: 0.034 | inactive: -0.086 | inactive: 0.102 |  |  | inactive: 0.005 |  | inactive: -0.067 | inactive: -0.031 |  | inactive: 0.039 | inactive: 0.027 | inactive: -0.069 |
| HMGN5 (UniProt Q5JSK9) | inactive: -0.04 | inactive: 0.017 |  |  |  |  | inactive: 0.074 |  | inactive: -0.04 |  | inactive: -0.074 | inactive: 0.062 |  | inactive: -0.036 |  |  | inactive: 0.076 |  | inactive: -0.035 |  |
| HNMT (UniProt P50135) | inactive: -0.097 | inactive: -0.023 |  | inactive: -0.086 | inactive: 0.169 | inactive: -0.019 | inactive: -0.095 |  | inactive: -0.041 | inactive: 0.054 |  |  | inactive: 0.124 |  | inactive: -0.218 |  |  |  | inactive: 0.013 | inactive: -0.212 |
| HSD17B4 (UniProt P51659) | inactive: 0 | inactive: -0.007 | inactive: 0 | inactive: -0.025 | inactive: -0.03 | inactive: 0.028 | inactive: 0.006 | inactive: 0.008 | inactive: 0.003 | inactive: -0.002 | inactive: -0.004 | inactive: -0.028 | inactive: 0.012 | inactive: -0.01 | inactive: 0.019 | inactive: 0.011 | inactive: -0.015 | inactive: -0.028 | inactive: -0.018 | inactive: -0.027 |
| HERC1 (UniProt Q15751) | inactive: -0.037 | inactive: -0.041 | inactive: -0.023 | inactive: -0.019 | inactive: 0.028 | inactive: -0.03 | inactive: 0.005 | inactive: 0.009 | inactive: -0.041 | inactive: 0.02 | inactive: 0.008 | inactive: 0.004 | inactive: -0.011 | inactive: 0.019 | inactive: 0.011 | inactive: -0.041 | inactive: -0.007 | inactive: 0.037 | inactive: -0.004 | inactive: -0.008 |
| HOOK2 (UniProt Q96ED9) | inactive: 0.043 | inactive: 0.055 |  | inactive: 0.138 | inactive: -0.003 | inactive: 0.004 |  |  | inactive: -0.158 | inactive: 0.123 | inactive: 0.081 | inactive: 0.003 | inactive: -0.057 | inactive: 0.066 | inactive: -0.039 |  | inactive: -0.041 |  | inactive: 0.021 | inactive: -0.16 |
| HMGB1 (UniProt P09429) | inactive: 0.017 | inactive: 0.02 | inactive: -0.024 | active: 0.304 | inactive: 0.028 | inactive: -0.097 | inactive: 0.03 | inactive: -0.014 | inactive: 0.079 | inactive: -0.154 | inactive: 0.056 | inactive: -0.002 | inactive: 0.03 | inactive: 0.064 | inactive: -0.03 | inactive: 0.108 | inactive: 0.026 | inactive: -0.021 | inactive: 0 | inactive: -0.011 |
| HNRNPM (UniProt P52272) | inactive: -0.001 | inactive: 0.063 | inactive: 0.025 | inactive: -0.011 | inactive: -0.022 | inactive: 0.02 | inactive: -0.019 | inactive: -0.113 | inactive: -0.029 | inactive: 0.053 | inactive: 0.022 | inactive: -0.043 | inactive: -0.109 | inactive: -0.05 | inactive: 0.01 | inactive: 0.055 | inactive: -0.112 | inactive: 0.054 | inactive: -0.002 | inactive: 0.053 |
| HP1BP3 (UniProt Q5SSJ5) | inactive: -0.017 | inactive: 0.03 | inactive: 0.012 | inactive: -0.003 | inactive: 0.034 | inactive: -0.048 | inactive: 0.008 | inactive: -0.043 | inactive: -0.056 | inactive: 0.061 | inactive: -0.004 | inactive: 0.002 | inactive: -0.023 | inactive: -0.025 | inactive: 0.013 | inactive: 0.019 | inactive: -0.002 | inactive: 0.02 | inactive: -0.006 | inactive: -0.012 |
| HSPA2 (UniProt P54652) | inactive: 0.046 | inactive: 0.012 | inactive: -0.018 | inactive: -0.11 | inactive: -0.017 | inactive: 0.241 | inactive: 0.034 | inactive: 0.081 | inactive: 0.094 | inactive: 0.356 | inactive: -0.016 | inactive: 0.013 | inactive: -0.079 | inactive: 0.144 | inactive: -0.078 | inactive: 0.026 | inactive: -0.093 | inactive: 0.05 | inactive: -0.044 | inactive: 0.054 |
| HJURP (UniProt Q8NCD3) | inactive: 0.017 | inactive: -0.06 | inactive: -0.171 |  | inactive: 0.027 |  |  | inactive: 0.081 | inactive: -0.055 |  | inactive: -0.118 | inactive: 0.157 | inactive: -0.067 | inactive: 0.029 | inactive: 0.035 | inactive: -0.018 | inactive: 0.009 | inactive: 0.005 | inactive: 0.071 | inactive: -0.033 |

Part of the list above, with bars between the fields.
Target | log2 fold change (lapatinib) | log2 fold change (pictilisib) | log2 fold change (crizotinib) | log2 fold change [1] | log2 fold change (duvelisib) | log2 fold change (gandotinib) | log2 fold change (tozasertib) | log2 fold change (doramapimod) | log2 fold change (bafetinib) | log2 fold change [2] | log2 fold change (nilotinib) | log2 fold change [3] | log2 fold change (dasatinib) | log2 fold change [4] | log2 fold change [5] | log2 fold change (quisinostat) | log2 fold change (tipifarnib) | log2 fold change [6] | log2 fold change [7] | log2 fold change [8]
HMGN5 (UniProt Q5JSK9) | inactive: -0.04 | inactive: 0.017 |  |  |  |  | inactive: 0.074 |  | inactive: -0.04 |  | inactive: -0.074 | inactive: 0.062 |  | inactive: -0.036 |  |  | inactive: 0.076 |  | inactive: -0.035 | 
HNMT (UniProt P50135) | inactive: -0.097 | inactive: -0.023 |  | inactive: -0.086 | inactive: 0.169 | inactive: -0.019 | inactive: -0.095 |  | inactive: -0.041 | inactive: 0.054 |  |  | inactive: 0.124 |  | inactive: -0.218 |  |  |  | inactive: 0.013 | inactive: -0.212
